Source: PubChem BioAssay AID445 (National Center for Advancing Translational Sciences (NCATS), 2006)
This is one part of the list. The main result of the screen is listed elsewhere. These columns were measured beside it and carry no call. Most of these compounds were active or inconclusive in the main read-out, so they are no random draw. Words in brackets tell the shape of the fitted curve; partial curves, single points and poor fits give uncertain potencies.

Test: IkB Signaling
Conditions: ABC-DLBCL IkBa-CBG/CBR dual luciferase ratio (green luciferase fused to IkBa over red control in OCI-Ly3 lymphoma cells), 4 h
Procedure, shortened: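 In this assay, an IκBα–CBG68 fusion accumulates when IKK-driven degradation is blocked; native CBR normalizes for cell number. OCI-Ly3 cells were treated 4 h with compound and doxycycline, then green and red light read after Chroma-Glo addition.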

[1] = measured here: control luc red channel unless noted
[2] = measured here: IkB-luc green channel
[3] = measured here: control luc red channel

Q: For `COc1ccc(NC(=O)c2c(C)oc3ccc(O)c(CN4CCN(C)CC4)c23)cc1Cl`, which AC50 [1] is on record?
A: 15.8 µM [falling, partial curve]

Q: Which AC50 [1] does the source give for `COc1ccc(CCNC(=O)c2ccc(CS(=O)(=O)c3ccc(C)cc3)o2)cc1OC` here?
A: 31.6 µM [falling, partial curve]

Q: For `COc1cc(OC)cc(-c2cc3nc(C)c(CCC(=O)O)c(C)n3n2)c1`, which AC50 [1] is on record?
A: 0.398 µM [falling, full curve]

Q: For `COc1ccc(-c2cnc(SCC(=O)Nc3ccc4c(c3)OCO4)n2Cc2ccco2)cc1`, which AC50 [1] is on record?
A: 7.94 µM [falling, partial curve]

Q: For `Cc1ccc(-c2nnc(Nc3ccc(C(N)=O)cc3)c3ccccc23)cc1S(=O)(=O)N1CCCCC1`, which AC50 [1] is on record?
A: 3.16 µM [falling, full curve]

Q: Which AC50 [1] does the source give for `Cc1cccc(-n2ccnc2SCC(=O)Nc2ccccc2C(F)(F)F)c1` here?
A: 6.31 µM [falling, partial curve]

Q: Which AC50 [1] does the source give for `C=CCc1c(C)nc(SC)nc1Nc1ccc(C(C)=O)cc1` here?
A: 15.8 µM [falling, partial curve]

Q: For `CCOC(=O)Cc1ccc(NC(=O)Nc2nnc(N3CCCCC3C)s2)cc1` (centres undefined), which AC50 [1] is on record?
A: 25.1 µM [falling, partial curve]

Q: With `COC(=O)c1ccc(NC(=O)c2c(-c3ccccc3)c(-c3ccccc3)nn(C)c2=O)cc1` as the molecule, how does the AC50 [1] read?
A: 39.8 µM [falling, single point]

Q: With `O=C(Nc1ccc2c(c1)CCCN2C(=O)c1cccs1)c1ccccc1C(F)(F)F` as the molecule, how does the AC50 [1] read?
A: 25.1 µM [falling, single point]

Q: Which AC50 [1] does the source give for `CCCN(C(=O)c1cc2c(s1)-c1ccccc1OC2)c1ccc(C(C)C)cc1` here?
A: 25.1 µM [falling, single point]

Q: With `CCOC(=O)c1ccc(NC(=O)Nc2cc3c(cc2N2CCCCC2)n(CC)c(=O)n3CC)cc1` as the molecule, how does the AC50 [1] read?
A: 6.31 µM [falling, partial curve]

Q: For `CCOC(=O)c1c(-c2ccccc2)csc1NC(=O)CSc1nnnn1C`, which AC50 [1] is on record?
A: 25.1 µM [falling, single point]

Q: Which AC50 [1] does the source give for `COc1ccc(Br)cc1CNCc1c(C(=O)O)c(C)n(Cc2ccccc2C)c1C` here?
A: 15.8 µM [falling, partial curve]

Q: For `COC(=O)c1ccc(/C(O)=C(\C#N)c2nc3ccccc3s2)cc1`, which AC50 [1] is on record?
A: 0.158 µM [falling, full curve]

Q: Which AC50 [1] does the source give for `Cc1cc2c(cc1S(=O)(=O)CCC(=O)N1CCN(c3ccccc3)CC1)OCC(=O)N2` here?
A: 3.16 µM [falling, single point]

Q: With `COc1ccc(-c2nc(-c3ccccc3OC)no2)cc1OC` as the molecule, how does the AC50 [1] read?
A: 10 µM [falling, partial curve]

Q: For `COc1ccc(-c2nc3scc(CCNS(=O)(=O)c4cccs4)n3n2)cc1`, which AC50 [2] is on record?
A: 2.51 µM [rising, partial curve]

Q: And the AC50 [3]?
A: 3.16 µM [rising, partial curve]

Q: For `Cc1cccc(N2CCN(C(=O)CS(=O)(=O)Cc3nc(-c4ccccc4F)oc3C)CC2C)c1` (centres undefined), which AC50 [1] is on record?
A: 7.94 µM [falling, full curve]

Q: For `COc1cc(OC)c(NC(=O)CCc2nc(C3=CCN(Cc4cccc(Cl)c4)CC3)no2)cc1Cl`, which AC50 [1] is on record?
A: 20 µM [falling, partial curve, poor fit]

Q: For `CCc1ccc(-n2c(=O)c3sc4ccccc4c3n(CC(=O)NC3CCCC3)c2=O)cc1`, which AC50 [1] is on record?
A: 1 µM [rising, full curve]

Q: For `CCc1ccc2c(c1)c(=O)c(S(=O)(=O)c1ccc(F)cc1)cn2CC(=O)Nc1ccccc1OC`, which AC50 [1] is on record?
A: 25.1 µM [falling, single point]

Q: For `Cc1ccc(NC(=O)c2oc3ccccc3c2NC(=O)C2CCCCC2)cc1`, which AC50 [1] is on record?
A: 25.1 µM [falling, single point]

Q: With `Cc1ccc(NC(=O)C2CCC(CNS(=O)(=O)c3cccs3)CC2)cc1C` (centres undefined) as the molecule, how does the AC50 [1] read?
A: 3.98 µM [falling, partial curve]

Q: Which AC50 [1] does the source give for `CCOC(=O)C1CCN(C(=O)c2ccc(C)c(NC(=O)c3nsc4ccccc34)c2)CC1` here?
A: 39.8 µM [falling, partial curve]

Q: For `CCc1cccc(C)c1Nc1c(-c2cccs2)nc2ncccn12`, which AC50 [1] is on record?
A: 31.6 µM [falling, single point]

Q: For `CCCCn1c(SCC(=O)Nc2ccc3c(c2)OCO3)nc2c1c(=O)n(C)c(=O)n2C`, which AC50 [1] is on record?
A: 39.8 µM [falling, single point]

Q: Which AC50 [1] does the source give for `CC(C)c1ccc(S(=O)(=O)NCc2nc3cccnc3n2Cc2ccc(F)cc2)cc1` here?
A: 31.6 µM [falling, partial curve]

Q: Which AC50 [1] does the source give for `Cc1ccc(C(=O)CC2(O)C(=O)N(CCc3ccccc3)c3ccc(Br)cc32)cc1` (centres undefined) here?
A: 25.1 µM [falling, partial curve]

Q: Which AC50 [2] does the source give for `CCn1c2ccccc2c2cc(Nc3cc(C)nc4ncnn34)ccc21` here?
A: 0.794 µM [rising, full curve]

Q: What about the AC50 [3] of the same molecule?
A: 0.316 µM [rising, full curve]

Q: For `CCOC(=O)c1cc2c(=O)n3ccccc3nc2n(CCCOC)c1=NC(=O)c1cc2ccccc2o1`, which AC50 [1] is on record?
A: 12.6 µM [falling, partial curve]

Q: Which AC50 [1] does the source give for `Cc1ccc2oc(=O)c3cnn(CC(=O)N4CCc5ccccc5C4)c3c2c1` here?
A: 15.8 µM [falling, partial curve]

Q: Which AC50 [1] does the source give for `Cc1ccc(CCNC(=O)c2cc3ccccn3n2)cc1` here?
A: 39.8 µM [falling, single point]

Q: With `Cc1ccc(Cn2c(C)c3cnn(CC(=O)N4CCN(c5cc(C)ccc5C)CC4)c(=O)c3c2C)cc1` as the molecule, how does the AC50 [1] read?
A: 7.94 µM [falling, partial curve]

Q: For `COc1cccc(-n2c(C)nc3c(cnn3-c3ccc(C)c(C)c3)c2=O)c1`, which AC50 [1] is on record?
A: 31.6 µM [falling, single point]

Q: Which AC50 [1] does the source give for `O=c1oc2ccc(Cl)cc2cc1-c1nc(-c2cccs2)no1` here?
A: 0.398 µM [falling, full curve]

Q: Which AC50 [1] does the source give for `COc1ccc(NC(=O)Cn2c(=O)n(Cc3ccco3)c(=O)c3sc4ccccc4c32)cc1Cl` here?
A: 25.1 µM [falling, single point]

Q: Which AC50 [1] does the source give for `CC(C)c1ccc(NC(=O)CN2C(=O)C3(SCC(=O)N3c3ccc(F)cc3)c3ccccc32)cc1` (centres undefined) here?
A: 15.8 µM [falling, partial curve]

Q: With `O=C(Nc1ccc(Cl)cc1)c1ccc2c(c1)N(Cc1ccccc1)CCS2` as the molecule, how does the AC50 [1] read?
A: 25.1 µM [falling, single point]

Q: For `CCN(C(=O)CSc1nc2ccccc2nc1Cc1ccccc1OC)c1ccccc1`, which AC50 [1] is on record?
A: 39.8 µM [falling, single point]

Q: Which AC50 [1] does the source give for `CCCC12CN3CC(CCC)(CN(C1)C3c1c[nH]c3ccc(OC)cc13)C2=O` (centres undefined) here?
A: 12.6 µM [falling, partial curve]

Q: For `Cc1nc(CC(=O)Nc2ccc(C(N)=O)cc2)cs1`, which AC50 [1] is on record?
A: 39.8 µM [falling, single point]

Q: With `CCSC1=NC2(CCN(C(=O)NC3CCCCC3)CC2)N=C1c1ccc(OC)cc1` as the molecule, how does the AC50 [1] read?
A: 25.1 µM [falling, single point]

Q: For `CCOc1ccccc1CNC(=O)CCc1cn(C)c2ccccc12`, which AC50 [1] is on record?
A: 25.1 µM [falling, single point]

Q: With `CC(C(=O)NCc1ccccc1)n1ccc2cc(S(=O)(=O)N3CCCC3)ccc21` (centres undefined) as the molecule, how does the AC50 [1] read?
A: 12.6 µM [falling, partial curve]

Q: With `CCOc1ccc(S(=O)(=O)Nc2cc3c(C(=O)OCc4ccccc4)c(C)oc3c3ccccc23)cc1` as the molecule, how does the AC50 [1] read?
A: 25.1 µM [falling, single point]

Q: Which AC50 [1] does the source give for `COc1ccc2c(c1)c1c(c(=O)n(-c3cc(Cl)ccc3C)c(=O)n1Cc1ccc(F)cc1)n2C` here?
A: 10 µM [rising, partial curve, poor fit]

Q: Which AC50 [1] does the source give for `Cc1c(Cl)cccc1-n1ncc(C(=O)NC2CCCC2)c1C1CCN(C(=O)OC(C)(C)C)CC1` here?
A: 15.8 µM [falling, partial curve]

Q: For `Cc1ccc(NC(=O)N2CCN3CCCCC3C2)cc1C` (centres undefined), which AC50 [1] is on record?
A: 10 µM [falling, single point]

Q: With `COc1ccccc1C(=O)OCc1cc(=O)n2c(C)csc2n1` as the molecule, how does the AC50 [1] read?
A: 12.6 µM [falling, partial curve]

Q: For `CCCOC(=O)c1c(-c2ccccc2)c(-c2ccccc2)nn(C)c1=O`, which AC50 [1] is on record?
A: 20 µM [falling, single point]

Q: Which AC50 [1] does the source give for `Cc1cc(C)c(-c2n[nH]c3c2C(c2ccccc2F)N(CCO)C3=O)c(O)c1` (centres undefined) here?
A: 25.1 µM [falling, single point]

Q: With `Cc1ccc(-n2nnnc2SCC(=O)NCCC2=CCCCC2)c(C)c1` as the molecule, how does the AC50 [1] read?
A: 39.8 µM [falling, single point]

Q: Which AC50 [1] does the source give for `N#C/C(=C(/O)CN1C(=O)c2ccccc2C1=O)c1nc2ccccc2[nH]1` here?
A: 25.1 µM [falling, partial curve]

Q: With `COC(=O)C1CCN(C(=O)COc2cc3sc(C)nc3c3sccc23)CC1` as the molecule, how does the AC50 [1] read?
A: 6.31 µM [falling, partial curve]

Q: For `Cc1ccc(-n2nc3c(N4CCCC(C(=O)NCc5ccccc5C)C4)nnc(C)c3c2C)cc1` (centres undefined), which AC50 [1] is on record?
A: 10 µM [falling, partial curve]

Q: Which AC50 [1] does the source give for `CC(=O)NC(c1ccco1)c1ccc2cccnc2c1O` (centres undefined) here?
A: 15.8 µM [falling, partial curve]

Q: With `Cc1ccc2scc(N3CCCC(C)C3)c(=O)c2c1` (centres undefined) as the molecule, how does the AC50 [1] read?
A: 1 µM [falling, partial curve]

Q: For `CCOc1ccc2c(c1)c(=O)c(C(=O)c1ccccc1)cn2Cc1ccccc1F`, which AC50 [1] is on record?
A: 39.8 µM [falling, partial curve]

Q: For `Cc1ccc2nc(SCC(=O)Nc3c(C)n(C)n(-c4ccccc4)c3=O)[nH]c2c1`, which AC50 [1] is on record?
A: 7.94 µM [falling, partial curve]

Q: Which AC50 [1] does the source give for `COc1ccc(OC)c(CNS(=O)(=O)c2cc(-c3onc(C)c3C)ccc2C)c1` here?
A: 3.98 µM [falling, full curve]

Q: For `CCN(CC)C(=O)c1sc2c(c1C)c(=O)n(-c1ccc(C)c(C)c1)c(=O)n2CC(=O)Nc1ccc(OC)cc1OC`, which AC50 [1] is on record?
A: 3.16 µM [rising, partial curve]
